Experimental data reported in PubChem BioAssay (EPA / NIEHS).
This list was built around the results that the source calls inconclusive (neither active nor inactive); the mix of calls is not that of the screen. Where the call is inconclusive, the potency comes from a doubtful curve fit. Activity calls are given as the source filed them. How the source made its calls: active means hit-call score of the fitted dose curve at least 0.9, where 1 is the maximum; inconclusive means response in the unintended direction; inactive means score below 0.9.

Protein sequences, listed by entry. Tags and fused reporters are not part of them.
UniProt P35968, whole entry, looked up: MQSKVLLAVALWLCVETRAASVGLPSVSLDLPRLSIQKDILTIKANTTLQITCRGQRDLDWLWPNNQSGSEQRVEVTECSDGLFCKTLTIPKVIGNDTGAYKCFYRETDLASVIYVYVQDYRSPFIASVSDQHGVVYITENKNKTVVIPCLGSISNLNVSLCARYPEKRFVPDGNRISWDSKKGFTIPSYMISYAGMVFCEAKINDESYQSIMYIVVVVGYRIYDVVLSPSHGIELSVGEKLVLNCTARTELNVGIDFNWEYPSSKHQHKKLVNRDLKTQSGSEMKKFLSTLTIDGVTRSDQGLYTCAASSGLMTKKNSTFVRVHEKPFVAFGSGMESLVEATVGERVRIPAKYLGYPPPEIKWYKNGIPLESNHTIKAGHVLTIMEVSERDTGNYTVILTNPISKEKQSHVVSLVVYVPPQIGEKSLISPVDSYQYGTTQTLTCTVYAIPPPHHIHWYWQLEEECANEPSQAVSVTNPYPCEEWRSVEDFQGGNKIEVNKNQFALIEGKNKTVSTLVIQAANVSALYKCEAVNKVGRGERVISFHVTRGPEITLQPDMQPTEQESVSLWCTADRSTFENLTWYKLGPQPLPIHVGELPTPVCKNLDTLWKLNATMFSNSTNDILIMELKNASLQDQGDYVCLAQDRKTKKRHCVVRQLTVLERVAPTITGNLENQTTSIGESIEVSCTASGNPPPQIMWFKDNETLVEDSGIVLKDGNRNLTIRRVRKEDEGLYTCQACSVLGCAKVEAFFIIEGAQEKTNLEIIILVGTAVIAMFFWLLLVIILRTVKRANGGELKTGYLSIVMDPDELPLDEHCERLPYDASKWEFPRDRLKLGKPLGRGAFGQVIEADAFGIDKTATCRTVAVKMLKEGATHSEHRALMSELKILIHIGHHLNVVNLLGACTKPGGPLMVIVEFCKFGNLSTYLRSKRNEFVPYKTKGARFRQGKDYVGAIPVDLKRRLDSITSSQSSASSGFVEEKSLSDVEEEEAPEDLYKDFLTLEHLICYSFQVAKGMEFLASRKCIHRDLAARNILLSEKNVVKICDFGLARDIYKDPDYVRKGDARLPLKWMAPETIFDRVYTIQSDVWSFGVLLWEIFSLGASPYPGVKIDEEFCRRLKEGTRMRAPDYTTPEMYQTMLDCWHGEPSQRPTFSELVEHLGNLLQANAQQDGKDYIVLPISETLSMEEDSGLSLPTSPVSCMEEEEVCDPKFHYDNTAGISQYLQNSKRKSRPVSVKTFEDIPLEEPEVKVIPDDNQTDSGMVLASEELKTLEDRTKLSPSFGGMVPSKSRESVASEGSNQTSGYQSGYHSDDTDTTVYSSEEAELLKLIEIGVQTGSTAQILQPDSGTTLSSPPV

Target: human Vascular Endothelial Growth Factor Receptor 2 (VEGFR2), KDR (gene 3791) (UniProt P35968)
Experiment: NVS_ENZ_hVEGFR2: NovaScreen (NVS) Enzymatic Assay for human Vascular Endothelial Growth Factor Receptor 2 (VEGFR2) (AID 2283230)
Procedure: NVS_ENZ_hVEGFR2 is a biochemical, single-readout assay that uses extracted gene-proteins in a cell-free assay. Measurements were taken 1 hour after chemical dosing in a 384-well plate.NVS_ENZ_hVEGFR2 is one of one assay component(s) measured or calculated from the NVS_ENZ_hVEGFR2 assay. It is designed to make measurements of enzyme activity, a form of enzyme reporter, as detected with fluorescence intensity signals by Fluorescence and electrophoretic mobility shift technology.Data from the assay component NVS_ENZ_hVEGFR2 was analyzed into 1 assay endpoint. This assay endpoint, NVS_ENZ_hVEGFR2, was analyzed in the positive analysis fitting direction relative to DMSO as the negative control and baseline of activity. Using a type of enzyme reporter, loss-of-signal activity can be used to understand changes in the enzymatic activity as they relate to the gene KDR. Furthermore, this assay endpoint can be referred to as a primary readout, because this assay has produced multiple assay endpoints where this one serves a enzymatic activity function. To generalize the intended target to other relatable targets, this assay endpoint is annotated to the kinase intended target family, where the subfamily is receptor tyrosine kinase.
Binding assays used specific radioligands (tritiated, iodinated) with non-radioactive competitive displacement ligands in agonist or antagonist protocols (as indicated) and various reference compounds and inhibitors to titrate specific binding to receptors and transporters. Most enzyme assays (CYPs, kinases, phosphatases, proteases, HDACs) used recombinant protein and specific substrates (fluorescence mostly, some colorimetric and radioactive) and inhibitors, followed by a biochemical separation of substrate and product. All assays for the biochemical HTS were initially run in duplicate at a single concentration (10 uM for CYP450 assays and 25 uM for all others). Assay-chemical combinations meeting a pre-defined threshold (e.g., 30% inhibition and other criteria defined below) were then run in singleton concentration-response format with maximum concentration of 20 uM for CYPs and 50 uM for all others. Each assay was run with positive and negative controls, and concurrent controls on every plate. The follow-up (secondary) screen tested active chemical-pairs in concentration series, as well as a few additional assays not tested in the primary screen, some selected negative inactives, and several cases re-run in the concentration series for confirmatory purposes.

Q: How did the AC50 turn out when `CCc1cc(SCc2sc(-c3ccc(C(F)(F)F)cc3)nc2CN2CCN(c3ccc(OC)cc3)CC2)ccc1OCC(=O)O` was run?
A: inconclusive: 4.96 µM

Q: With `CC/C(=C(\c1ccccc1)c1ccc(OCCN(C)C)cc1)c1ccccc1` as the compound, how does the AC50 read?
A: inconclusive: 22.9 µM

Q: How did the AC50 turn out when `O=C(NO)C1(NS(=O)(=O)c2ccc(Oc3ccc(F)cc3)cc2)CCOCC1` was run?
A: inconclusive: 2.26 µM

Q: Which AC50 does the source give for `CCCCCOC(C)=O` here?
A: inconclusive: 0.553 µM

Q: Which outcome does the source give for `CCCCCCCCCCCCCCCO` here?
A: inactive

Q: How did the AC50 turn out when `CC/C(=C(/CC)c1ccc(O)cc1)c1ccc(O)cc1` was run?
A: inconclusive: 25 µM

Q: How did the AC50 turn out when `CC(C)c1cccc(C(C)C)c1N1C(=O)c2ccc(O)cc2C1=O` was run?
A: inconclusive: 1.71 µM

Q: `CCCC(CCC)C(=O)O` was tested. Which AC50 did it give?
A: inconclusive: 25 µM

Q: How did the AC50 turn out when `CC(C)COC(=O)CCCCC(=O)OCC(C)C` was run?
A: inconclusive: 25 µM

Q: `O=C(O)c1cc(N=Nc2ccc(S(=O)(=O)Nc3ccccn3)cc2)ccc1O` was tested. Which outcome did it give?
A: inactive
